Data on 1 substance can be found in PMC5440646, “T Cell Costimulation by CD6 Is Dependent on Bivalent Binding of a GADS/SLP-76 Complex” (Molecular and Cellular Biology, 2017).

By UniProt entry, the sequences of proteins in these tests, tags left out.
UniProt P62993: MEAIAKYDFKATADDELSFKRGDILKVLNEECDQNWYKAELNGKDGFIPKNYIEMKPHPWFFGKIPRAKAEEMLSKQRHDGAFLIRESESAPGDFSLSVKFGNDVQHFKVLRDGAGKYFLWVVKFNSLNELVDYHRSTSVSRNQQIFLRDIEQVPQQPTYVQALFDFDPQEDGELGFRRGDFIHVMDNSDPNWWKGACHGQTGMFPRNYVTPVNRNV

For experiment [1], the target named is T1, control peptide (biotin-…).
T1 sequence (peptide, biotin on the N-terminus): HVDNEYSQPPRNS
The experiment can be described thus: affinity purification with mass spectrometry; biotinylated peptide (50 μg) on Dynabeads M-280 streptavidin, multivalent; lysates of Jurkat T cells stimulated with ionomycin and PMA for 24 h; 18 h at 4°C; washed with 0.1% Triton X-100 in PBS; only the target purified.

Experiment [2] has as its target T2, CD6 pY629 peptide (biotin-SSGEWpYQNFQP) (human).
T2 sequence (peptide, biotin on the N-terminus; phosphotyrosine at Y629): SSGEWYQNFQP
The experiment is described as above.

No constants are given. Whether binding was seen depends on the method and setting. Binding seen in cells or lysates may run through a third protein. Here binding means that the protein was enriched with, or labelled near, the bait; the list need not be complete. For some assays here: No binding means not detected with the bait.

Consider “growth factor receptor-bound protein 2 (GRB2), endogenous (from UniProt P62993 1-217)”, for which the binding entry in experiment [1] is recorded as “no binding”; in experiment [2] it was “binds”.
